# From PubChem BioAssay AID2685 (National Center for Advancing Translational Sciences (NCATS), 2010)
# The other results are listed elsewhere or left out. Further columns of the screen follow, without active or inactive calls. The list favours compounds with an active or inconclusive main result. Words in brackets tell the shape of the fitted curve; partial curves, single points and poor fits give uncertain potencies.
# Assay: qHTS Assay for Lipid Storage Modulators in Drosophila S3 Cells;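 as to cell number change: cells counted by Cell Tracker Red CMTPX staining in the red channel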
# Details: BODIPY lipid droplet fluorescence, 18-24 h; for cell number change: measured here: cell count max response, cells fed with added oleic acid
# Procedure, shortened: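 Drosophila S3 cells got compounds at several concentrations plus oleic acid (400 uM solution). Laser-scanning cytometry with 488 nm excitation read lipid droplets at 500-530 nm and cells at 575-640 nm. Percent activity was relative to 20 uM Triacsin C.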
# [1] = measured here: lipid fluorescence (Fed channel) AC50, cells fed with added oleic acid
# [2] = measured here: cell number channel AC50, cells fed with added oleic acid
SMILES,cell number change,AC50 [1],AC50 [2]
CCC(C)(C(=O)NC1CCCCC1)N(C)C(=O)c1ccc2c(c1)OCO2 (stereo not drawn),16.4%,"0.58 µM [rising, single point]",
CCn1c(=O)c(C(=O)NCc2ccccn2)c(O)c2ccccc21,-11%,"1.03 µM [rising, partial curve]",
CC1CC(=O)N(CC(=O)Nc2cccc(F)c2)c2ccccc2S1(=O)=O (stereo not drawn),-36.8%,,"29.1 µM [falling, single point]"
CN(C)S(=O)(=O)c1ccc(N2CCCC2)c(C(=O)N2CCN(S(=O)(=O)c3cccc(F)c3)CC2)c1,28.5%,,
CCCCOc1ccc2c(C)cc(=O)oc2c1OCCCC,-29.2%,"29.1 µM [falling, single point]",
Cc1c(CC(=O)N[C@@H](C)C(=O)O)c(=O)oc2c(C)c3occ(-c4ccccc4)c3cc12,27%,"4.11 µM [rising, partial curve, poor fit]",
O=C(Nc1nc(-c2ccccc2)cs1)C1CCCCN1S(=O)(=O)c1ccc(Cl)cc1 (stereo not drawn),12.1%,"0.291 µM [rising, partial curve, poor fit]",
COc1ccc(-n2nc(C(=O)NCC(=O)N3CCN(Cc4ccc5c(c4)OCO5)CC3)c3ccccc3c2=O)cc1OC,62.3%,,"25.9 µM [rising, single point]"
CCOC(=O)C(Cc1ccc(NC(=O)/C(=C/c2ccccc2)NC(=O)c2ccccc2)cc1)N1C(=O)c2ccccc2C1=O (stereo not drawn),-2.62%,"3.66 µM [falling, full curve]",
CCSc1nc2nn(-c3ccccc3)c(=O)c-2c2n1CCCCC2,38.2%,,
CC(=O)c1sc(NC(=O)C2CCN(C(=O)c3ccc(F)cc3)CC2)nc1-c1ccccc1,-50%,,"0.058 µM [falling, full curve]"
Cc1ccc(NC(=O)CCN2C(=O)NC3(CCCC3)C2=O)cc1S(=O)(=O)N1CCOCC1,6.38%,"0.00461 µM [rising, full curve, poor fit]",
COc1ccc(N2CCN(C(CNC(=O)CC(C)(C)C)c3ccc4c(c3)OCO4)CC2)cc1 (stereo not drawn),-7.03%,"11.6 µM [rising, partial curve]",
CCn1c2ccccc2c2cc(NC(=O)CSc3nnc(-c4ccccc4)o3)ccc21,36.1%,"3.66 µM [rising, partial curve]","0.58 µM [rising, full curve, poor fit]"
COCCNc1ccc([N+](=O)[O-])cc1C(=O)NC1CCCc2ccccc21 (stereo not drawn),-0.952%,"29.1 µM [rising, single point]",
O=C(COC(=O)C1CC1)NCCNC(=O)COC(=O)C1CC1,-18.5%,"2.91 µM [falling, full curve]","2.91 µM [falling, single point]"
O=C(CCSc1nnc(-c2ccncc2)o1)Nc1ccccc1,-85.1%,,"23.1 µM [falling, partial curve]"
CCCN1CCN(C(=O)C2CCN(S(=O)(=O)c3c(C)noc3/C=C/c3ccc(C)cc3)CC2)CC1,25.1%,"6.51 µM [falling, single point]","2.06 µM [rising, full curve, poor fit]"
CC(OC(=O)c1ccc2c(c1)OCCO2)C(=O)NC1CCCCC1C (stereo not drawn),-50.2%,,"25.9 µM [falling, single point]"
COc1cc(OC)c(C(=O)OCC(=O)Nc2nnc(-c3ccccc3)o2)cc1OC,19.1%,"0.00517 µM [rising, full curve, poor fit]","0.0116 µM [rising, full curve, poor fit]"

# Shown as tab-separated lines: entries from further up.
SMILES	cell number change	AC50 [1]	AC50 [2]
CCC(C)(C(=O)NC1CCCCC1)N(C)C(=O)c1ccc2c(c1)OCO2 (stereo not drawn)	16.4%	0.58 µM [rising, single point]	
CCn1c(=O)c(C(=O)NCc2ccccn2)c(O)c2ccccc21	-11%	1.03 µM [rising, partial curve]	
CC1CC(=O)N(CC(=O)Nc2cccc(F)c2)c2ccccc2S1(=O)=O (stereo not drawn)	-36.8%		29.1 µM [falling, single point]

# Continuation:

SMILES,cell number change,AC50 [1],AC50 [2]
Cc1ccc(S(=O)(=O)N/N=C/c2cccs2)cc1,-16.1%,"0.58 µM [falling, full curve, poor fit]",
CCN(C(=O)COC(=O)CCc1c[nH]c2ccccc12)c1c(N)n(Cc2ccccc2)c(=O)[nH]c1=O,-29.9%,"29.1 µM [falling, single point]",
COc1ccc(S(=O)(=O)Nc2ncccc2C)c2ccccc12,13.1%,"1.46 µM [rising, full curve]",
C#CCOCCOCCOCCNc1nc(N2CCN(C(=O)[C@H](CCCCN)n3cc(CCCC)nn3)CC2)nc(N2CCN(C(=O)[C@H](CCCCN)n3cc(CCC(=O)O)nn3)CC2)n1,-3.04%,"0.461 µM [falling, single point]",
[O-]/[N+](=C\c1ccccc1)c1ccccc1,-24%,,
COc1ccc(C(=O)C(CCC(CNC(C)(C)C)C(=O)c2ccc(OC)cc2)CNC(C)(C)C)cc1 (stereo not drawn),-1.21%,,
CCCCC(CC)C(=O)Oc1ccc(O)c(C(C)(C)C)c1 (stereo not drawn),,"23.1 µM [falling, partial curve]",
Cc1ccc(CNC(=O)C(Cc2ccccc2)NS(=O)(=O)c2ccc(Br)s2)cc1 (stereo not drawn),17.4%,"0.00517 µM [rising, full curve, poor fit]",
O=C(NCC(c1ccco1)N1CCOCC1)c1ccccc1 (stereo not drawn),-3.1%,"29.1 µM [rising, partial curve, poor fit]",
CC(C)C[C@H]1CN=C(Nc2ccccc2)N1CC1CCC(C)CC1 (stereo partly drawn),-7.78%,"3.26 µM [falling, single point]",
CCOC(=O)c1nc2ccccc2c(C)c1C,27.3%,"11.6 µM [rising, partial curve]",
O=C(/C=C/c1ccccc1)c1cc(Br)ccc(=O)c1O,-36%,"20.6 µM [falling, partial curve]","20.6 µM [falling, single point]"
CC(C(=O)Nc1cccc([N+](=O)[O-])c1)N(c1ccccc1)S(C)(=O)=O (stereo not drawn),-9.47%,,"0.708 µM [falling, full curve]"
c1ccc(CNc2ccc3ccccc3n2)nc1,2.47%,"1.03 µM [falling, full curve]","1.84 µM [falling, partial curve]"
O=C(c1csc2ccccc12)N1CCN(c2ccccn2)CC1,-29.2%,"6.51 µM [rising, single point]",
O=C(c1cccc2ccccc12)N1CCCCC1,,"29.1 µM [falling, single point]",
COCCNc1nnc(SC(C)C(=O)Nc2ccc(-c3nc4ccc(C)cc4s3)cc2)s1 (stereo not drawn),-53.4%,,"11.6 µM [falling, partial curve]"
CC(OC(=O)C1CCN(S(=O)(=O)c2ccc(Cl)cc2)CC1)C(=O)NC1CCCCC1C (stereo not drawn),21.5%,,
CCOC(=O)C1=C(COC(=O)CSc2ccc(Br)cc2)NC(=O)NC1C (stereo not drawn),-17.8%,,
CC1CC2(CC(C)(C(=O)CSc3nc4ccccc4s3)OC2=O)C(=O)O1 (stereo not drawn),16.7%,,

SMILES,cell number change,AC50 [1],AC50 [2]
COc1ccc(-n2c(=S)[nH]c3cc(C(=O)N4CCN(c5ccccc5)CC4)ccc3c2=O)cc1,12.9%,"29.1 µM [falling, single point]",
CC(=O)Nc1ccc(-c2sc(Nc3cccc4ccccc34)n[n+]2-c2ccccc2)cc1,33.2%,,"20.6 µM [rising, partial curve]"
Cc1cc(F)ccc1S(=O)(=O)NCC1CC2CCC1C2 (stereo not drawn),-17.1%,"1.46 µM [falling, partial curve, poor fit]",
Cc1ccccc1NC(=O)C(=O)NCC1CCCN1S(=O)(=O)c1cccs1 (stereo not drawn),,,"3.66 µM [rising, partial curve, poor fit]"
CN1/C(=C/C=C(C#N)C#N)C=Cc2ccccc21,-46.1%,"23.1 µM [falling, partial curve, poor fit]","23.1 µM [falling, partial curve, poor fit]"
c1cncc(N=c2scc(-c3cccc4ccccc34)n2CCCn2ccnc2)c1,31.6%,"6.51 µM [rising, single point]","2.31 µM [rising, full curve]"
COc1cc(/C=C/C(=O)OCC(=O)Nc2ccc(C)cc2[N+](=O)[O-])ccc1O,-40.9%,,"7.31 µM [falling, partial curve]"
Cc1ccc(C2OC(=O)C=C2c2ccccc2)cc1 (stereo not drawn),-24.4%,,
CCOC(=O)CC(=O)Nc1ccn[nH]1,24.2%,,"0.731 µM [falling, single point]"
C=CCOC(=O)C1=C(C)NC(=O)NC1c1ccc(OCC)cc1 (stereo not drawn),32.7%,,"16.4 µM [rising, single point]"
O=C(CN(C(=O)c1csnn1)c1cccc(C(F)(F)F)c1)NC1CCCC1,26.9%,"0.116 µM [rising, single point]",
CCc1cccc(NC(=O)CSc2nc3c(c(=O)[nH]2)CCCC3)c1,14%,"3.26 µM [rising, single point]",
Cc1ccc(S(=O)(=O)n2ccc(-c3cccc(OCc4c(F)cccc4Cl)c3)n2)cc1,43.4%,"11.6 µM [rising, partial curve]","16.4 µM [rising, partial curve, poor fit]"
COc1ccc(CCNC(=O)CCCc2ccccc2)cc1,33.6%,,"0.731 µM [rising, full curve, poor fit]"
O=C(NCC1CCN(C(=O)c2c(F)c(F)c(F)c(F)c2F)CC1)c1c(F)c(F)c(F)c(F)c1F,-7.51%,"0.146 µM [falling, partial curve, poor fit]",
CCN(Cc1nc2cc(Cl)ccc2c(=O)[nH]1)C(=O)c1cc(C2CC2)nn1-c1ccccc1,-16.3%,,
c1ccc(CCNc2ncnc3c2cnn3-c2ccccc2)cc1,-20%,"29.1 µM [falling, single point]",
CC(Sc1nc(-c2ccccc2)cc(C(F)(F)F)n1)C(=O)Nc1sc2c(c1C(N)=O)CCC2 (stereo not drawn),8.73%,"0.116 µM [rising, full curve, poor fit]",
